Data taken from PubChem BioAssay AID248 (DTP/NCI, 2004).
The list does not hold the whole screen: it is rich in T/C values a quarter to a half above the control, in often repeated tests (any T/C) and in doses without a T/C. Further doses and runs are listed elsewhere. T/C is the treated group as % of the vehicle group. Some entries give survivors of the animals treated and no T/C: the source holds a T/C of zero for them, seemingly a mark for toxic or unscored doses. Some doses without a T/C left all or most animals alive at the check, yet need not have been tolerated: the source hardly ever lists a survival T/C far under the control, and the zero likely stands for such cases as well. Counts of survivors are from the toxicity check (mostly the fifth day) where no day follows; animals may have died later. Schedule codes are those of the source, taken here to give the interval after Q, in days (D) or hours (H), and the number of doses after X. Some entries hold several experiments; the values are given in rising order. Some schedule codes hold Z or #, which are not explained here. For survival time, this PubChem deposit counts one and a half times the control or more as active, and values a quarter to a half above the control carry no call in these data; other NCI protocols may use other cut-offs. Some T/C values are followed by the survivors on the day toxicity was checked, most often the fifth; where none is given, no animal had died by that day. Brackets with × give the number of equal values in this list.

System: L1210 leukemia ip in BDF1 mice, survival T/C
Experiment: NCI In Vivo Anticancer Drug Screen. Data for tumor model L1210 Leukemia (intraperitoneal) in B6D2F1 (BDF1) mice
Details: higher T/C = longer survival

**Q.** Which results are given for `N[C@@H](Cc1ccc(N(CCCl)CCCl)cc1)C(=O)O`?
**A.** T/C (T/C endpoint: mean survival time, dose: 0.25 mg/kg/injection, schedule: Q03HX024 (ip), vehicle: saline): 128 % of control [9 of 10 alive]; T/C (T/C endpoint: mean survival time, dose: 0.5 mg/kg/injection, schedule: Q03HX024 (ip), vehicle: saline): 127 % of control; T/C (T/C endpoint: mean survival time, dose: 0.8 mg/kg/injection, schedule: Q01DX015 (ip), vehicle: carboxymethylcellulose (CMC)): 134 % of control; T/C (T/C endpoint: mean survival time, dose: 1.0 mg/kg/injection, schedule: Q01DX009 (ip), vehicle: Klucel (hydroxypropylcellulose) (HPC)): 128, 131, 138, 147 % of control; T/C (T/C endpoint: mean survival time, dose: 1.0 mg/kg/injection, schedule: Q01DX009 (ip), vehicle: other): 141 % of control; T/C (T/C endpoint: mean survival time, dose: 1.0 mg/kg/injection, schedule: Q01DX009 (ip), vehicle: saline): 134 % of control; T/C (T/C endpoint: mean survival time, dose: 1.0 mg/kg/injection, schedule: Q01DX009 (sc), vehicle: saline): 125 % of control; T/C (T/C endpoint: mean survival time, dose: 1.0 mg/kg/injection, schedule: Q01DX Z (ip), vehicle: carboxymethylcellulose (CMC)): 148 % of control; T/C (T/C endpoint: mean survival time, dose: 1.0 mg/kg/injection, schedule: Q03DX Z (ip), vehicle: carboxymethylcellulose (CMC)): 146 % of control; T/C (T/C endpoint: mean survival time, dose: 1.0 mg/kg/injection, schedule: Q03HX016 (ip), vehicle: saline): 138 % of control; T/C (T/C endpoint: mean survival time, dose: 1.0 mg/kg/injection, schedule: Q03HX024 (ip), vehicle: saline): 140 % of control; T/C (T/C endpoint: mean survival time, dose: 1.56 mg/kg/injection, schedule: Q01DX001 (ip), vehicle: carboxymethylcellulose (CMC)): 125 % of control; T/C (T/C endpoint: mean survival time, dose: 1.6 mg/kg/injection, schedule: Q01DX015 (ip), vehicle: carboxymethylcellulose (CMC)): 143 % of control; T/C (T/C endpoint: mean survival time, dose: 2.0 mg/kg/injection, schedule: Q01DX005 (ip), vehicle: saline): 130 % of control; T/C (T/C endpoint: mean survival time, dose: 2.0 mg/kg/injection, schedule: Q01DX009 (ip), vehicle: Klucel (hydroxypropylcellulose) (HPC)): 138 (2×), 167, 236 % of control; T/C (T/C endpoint: mean survival time, dose: 2.0 mg/kg/injection, schedule: Q01DX009 (oral), vehicle: saline): 129 % of control [9 of 10 alive]; T/C (T/C endpoint: mean survival time, dose: 2.0 mg/kg/injection, schedule: Q01DX009 (sc), vehicle: saline): 130 % of control; T/C (T/C endpoint: mean survival time, dose: 2.0 mg/kg/injection, schedule: Q04DX003 (ip), vehicle: saline): 127 % of control; T/C (T/C endpoint: mean survival time, dose: 2.25 mg/kg/injection, schedule: Q01DX001 (ip), vehicle: carboxymethylcellulose (CMC)): 136 and 142 % of control; T/C (T/C endpoint: mean survival time, dose: 3.12 mg/kg/injection, schedule: Q01DX001 (ip), vehicle: carboxymethylcellulose (CMC)): 132 % of control; T/C (T/C endpoint: mean survival time, dose: 3.5 mg/kg/injection, schedule: Q04DX002 (ip), vehicle: Klucel (hydroxypropylcellulose) (HPC)): 123, 124, 128, 141 % of control; T/C (T/C endpoint: mean survival time, dose: 3.6 mg/kg/injection, schedule: Q01DX001 (ip), vehicle: saline): 136 and 140 % of control; T/C (T/C endpoint: mean survival time, dose: 3.6 mg/kg/injection, schedule: Q04DX003 (ip), vehicle: saline): 145 % of control; T/C (T/C endpoint: mean survival time, dose: 4.0 mg/kg/injection, schedule: Q01DX001 (ip), vehicle: carboxymethylcellulose (CMC)): 133 % of control; T/C (T/C endpoint: mean survival time, dose: 4.0 mg/kg/injection, schedule: Q01DX005 (ip), vehicle: saline): 148 % of control [9 of 10 alive]; T/C (T/C endpoint: mean survival time, dose: 4.0 mg/kg/injection, schedule: Q01DX009 (ip), vehicle: Klucel (hydroxypropylcellulose) (HPC)): 149, 175, 208, 237 % of control [2 of 3 alive]; T/C (T/C endpoint: mean survival time, dose: 4.0 mg/kg/injection, schedule: Q01DX Z (ip), vehicle: carboxymethylcellulose (CMC)): 138 % of control; T/C (T/C endpoint: mean survival time, dose: 4.0 mg/kg/injection, schedule: Q04DX003 (ip), vehicle: saline): 144 % of control; T/C (T/C endpoint: mean survival time, dose: 4.0 mg/kg/injection, schedule: Q08DX002 (ip), vehicle: saline): 138 % of control; survivor count (T/C endpoint: mean survival time, dose: 5.33 mg/kg/injection, schedule: Q03HX024 (ip), vehicle: other): 5 of 6; T/C (T/C endpoint: mean survival time, dose: 6.0 mg/kg/injection, schedule: Q01DX001 (ip), vehicle: Klucel (hydroxypropylcellulose) (HPC)): 135 % of control; T/C (T/C endpoint: mean survival time, dose: 6.0 mg/kg/injection, schedule: Q01DX001 (ip), vehicle: carboxymethylcellulose (CMC)): 144 % of control; T/C (T/C endpoint: mean survival time, dose: 6.0 mg/kg/injection, schedule: Q01DX Z (oral), vehicle: carboxymethylcellulose (CMC)): 146 % of control; T/C (T/C endpoint: mean survival time, dose: 6.25 mg/kg/injection, schedule: Q01DX001 (ip), vehicle: saline): 126 % of control; T/C (T/C endpoint: mean survival time, dose: 7.0 mg/kg/injection, schedule: Q04DX002 (ip), vehicle: Klucel (hydroxypropylcellulose) (HPC)): 158, 175, 188 % of control (2×); T/C (T/C endpoint: mean survival time, dose: 8.0 mg/kg/injection, schedule: Q01DX001 (ip), vehicle: saline): 132 % of control; survivor count (T/C endpoint: mean survival time, dose: 8.0 mg/kg/injection, schedule: Q01DX009 (ip), vehicle: saline): 9 of 10; T/C (T/C endpoint: mean survival time, dose: 8.0 mg/kg/injection, schedule: Q01DX Z (ip), vehicle: carboxymethylcellulose (CMC)): 98, 100, 110, 118 % of control; survivor count (T/C endpoint: mean survival time, dose: 8.0 mg/kg/injection, schedule: Q03HX008 (ip), vehicle: saline): 7 of 10; survivor count (T/C endpoint: mean survival time, dose: 8.0 mg/kg/injection, schedule: Q03HX016 (ip), vehicle: saline): 8 of 10; T/C (T/C endpoint: mean survival time, dose: 10.0 mg/kg/injection, schedule: Q01DX001 (ip), vehicle: saline, evaluated on day 45): 253 % of control; T/C (T/C endpoint: mean survival time, dose: 10.0 mg/kg/injection, schedule: Q01DX001 (ip), vehicle: saline, evaluated on day 60): 136 [7 of 8 alive], 256, 257, 478 % of control; T/C (T/C endpoint: mean survival time, dose: 10.0 mg/kg/injection, schedule: Q04DX003 (ip), vehicle: saline): 127 and 134 % of control; T/C (T/C endpoint: mean survival time, dose: 12.5 mg/kg/injection, schedule: Q01DX001 (ip), vehicle: saline): 131 and 133 % of control; T/C (T/C endpoint: mean survival time, dose: 14.0 mg/kg/injection, schedule: Q04DX002 (ip), vehicle: Klucel (hydroxypropylcellulose) (HPC)): 128, 177, 208, 247 % of control; survivor count (T/C endpoint: mean survival time, dose: 15.0 mg/kg/injection, schedule: Q01DX009 (ip), vehicle: saline): 5 of 6 and 6 of 6; T/C (T/C endpoint: mean survival time, dose: 16.0 mg/kg/injection, schedule: Q01DX001 (ip), vehicle: saline): 129 % of control [9 of 10 alive]; T/C (T/C endpoint: mean survival time, dose: 16.0 mg/kg/injection, schedule: Q01DX001 (sc), vehicle: saline): 136 % of control; survivor count (T/C endpoint: mean survival time, dose: 16.0 mg/kg/injection, schedule: Q01DX009 (ip), vehicle: saline): 9 of 10 and 10 of 10; survivor count (T/C endpoint: mean survival time, dose: 16.0 mg/kg/injection, schedule: Q01DX009 (oral), vehicle: saline): 9 of 10; survivor count (T/C endpoint: mean survival time, dose: 16.0 mg/kg/injection, schedule: Q01DX009 (sc), vehicle: saline): 10 of 10; T/C (T/C endpoint: mean survival time, dose: 16.0 mg/kg/injection, schedule: Q04DX003 (ip), vehicle: saline): 136 % of control; survivor count (T/C endpoint: mean survival time, dose: 16.7 mg/kg/injection, schedule: Q01DX001 (ip), vehicle: saline): 5 of 8; survivor count (T/C endpoint: mean survival time, dose: 25.0 mg/kg/injection, schedule: Q01DX001 (ip), vehicle: carboxymethylcellulose (CMC)): 3 of 6; survivor count (T/C endpoint: mean survival time, dose: 25.0 mg/kg/injection, schedule: Q01DX Z (ip), vehicle: carboxymethylcellulose (CMC)): 8 of 10 and 10 of 10; survivor count (T/C endpoint: mean survival time, dose: 28.0 mg/kg/injection, schedule: Q04DX002 (ip), vehicle: Klucel (hydroxypropylcellulose) (HPC)): 3 of 3 and 6 of 6; survivor count (T/C endpoint: mean survival time, dose: 30.0 mg/kg/injection, schedule: Q01DX009 (ip), vehicle: saline): 1 of 6; survivor count (T/C endpoint: mean survival time, dose: 32.0 mg/kg/injection, schedule: Q01DX001 (sc), vehicle: saline): 7 of 10; survivor count (T/C endpoint: mean survival time, dose: 32.0 mg/kg/injection, schedule: Q01DX009 (ip), vehicle: saline): 4 of 10; survivor count (T/C endpoint: mean survival time, dose: 32.0 mg/kg/injection, schedule: Q01DX Z (ip), vehicle: carboxymethylcellulose (CMC)): 5 of 6; survivor count (T/C endpoint: mean survival time, dose: 32.0 mg/kg/injection, schedule: Q04DX003 (ip), vehicle: saline): 7 of 10; survivor count (T/C endpoint: mean survival time, dose: 32.0 mg/kg/injection, schedule: Q08DX002 (ip), vehicle: saline): 9 of 10; survivor count (T/C endpoint: mean survival time, dose: 50.0 mg/kg/injection, schedule: Q01DX001 (ip), vehicle: carboxymethylcellulose (CMC)): 2 of 6; survivor count (T/C endpoint: mean survival time, dose: 50.0 mg/kg/injection, schedule: Q01DX Z (ip), vehicle: carboxymethylcellulose (CMC)): 2 of 10 and 3 of 10; survivor count (T/C endpoint: mean survival time, dose: 64.0 mg/kg/injection, schedule: Q01DX001 (ip), vehicle: saline): 9 of 10; survivor count (T/C endpoint: mean survival time, dose: 64.0 mg/kg/injection, schedule: Q01DX001 (oral), vehicle: saline): 8 of 10; survivor count (T/C endpoint: mean survival time, dose: 64.0 mg/kg/injection, schedule: Q01DX001 (sc), vehicle: saline): 7 of 10; survivor count (T/C endpoint: mean survival time, dose: 64.0 mg/kg/injection, schedule: Q01DX009 (ip), vehicle: saline): 1 of 10; survivor count (T/C endpoint: mean survival time, dose: 64.0 mg/kg/injection, schedule: Q08DX002 (ip), vehicle: saline): 8 of 10; survivor count (T/C endpoint: mean survival time, dose: 75.0 mg/kg/injection, schedule: Q01DX Z (ip), vehicle: carboxymethylcellulose (CMC)): 0 of 10; survivor count (T/C endpoint: mean survival time, dose: 100.0 mg/kg/injection, schedule: Q01DX001 (ip), vehicle: carboxymethylcellulose (CMC)): 1 of 6; survivor count (T/C endpoint: mean survival time, dose: 128.0 mg/kg/injection, schedule: Q01DX009 (ip), vehicle: saline): 0 of 10; survivor count (T/C endpoint: mean survival time, dose: 200.0 mg/kg/injection, schedule: Q01DX001 (ip), vehicle: carboxymethylcellulose (CMC)): 0 of 6; survivor count (T/C endpoint: mean survival time, dose: 256.0 mg/kg/injection, schedule: Q01DX009 (ip), vehicle: saline): 0 of 10; survivor count (T/C endpoint: mean survival time, dose: 400.0 mg/kg/injection, schedule: Q01DX001 (ip), vehicle: carboxymethylcellulose (CMC)): 0 of 6; T/C (T/C endpoint: median survival time, dose: 0.5 mg/kg/injection, schedule: Q01DX009 (ip), vehicle: saline, evaluated on day 5): 130, 131, 134 % of control; T/C (T/C endpoint: median survival time, dose: 0.5 mg/kg/injection, schedule: Q01DX009 (ip), vehicle: saline, evaluated on day 24): 130 % of control; T/C (T/C endpoint: median survival time, dose: 0.5 mg/kg/injection, schedule: Q01DX009 (ip), vehicle: saline, evaluated on day 33): 131 and 134 % of control; T/C (T/C endpoint: median survival time, dose: 1.0 mg/kg/injection, schedule: Q01DX009 (ip), vehicle: saline, evaluated on day 5): 131, 137, 140, 142, 153 % of control; T/C (T/C endpoint: median survival time, dose: 1.0 mg/kg/injection, schedule: Q01DX009 (ip), vehicle: saline, evaluated on day 24): 140 % of control
